Consider three sequences from US20080085879.

The subject of data set [1] is LXRα/RXRα heterodimer. In words: EMSA. The following applies: protein translated in vitro.
Data set [2] has as its system LXRα/RXRα heterodimer. In words: competition with a labelled probe. The following applies: protein translated in vitro.

For at least one entry, the source does not settle the construct or the ends of the probe. For part of these data: Negatives hold for the conditions tested.

Turning to “ATAAGGTCAAGTTTGCTCACTC (double strand) [mEst DR-4]”, the binding result in the data set on LXRα/RXRα heterodimer [1] is on record as “binds”.

Regarding “CTGGGGTTACTGGCGGTCACTG (double strand) [Srebp-1c DR-4 LXRE]”, in the data set with LXRα/RXRα heterodimer [2] (excess unlabeled Srebp-1c/DR-4 efficiently competes Est/DR-4 binding), the binding result is reported as “binds”.

For the sequence “ATAAAATCTAGTTTGCTCACTC (double strand) [mutant Est DR-4]”, the binding result with LXRα/RXRα heterodimer [2] (unlabeled mutant does not compete Est/DR-4 binding, variant of mEst DR-4) is on record as “no binding”.
